Measured values from paper PMC5617202, “Structural and functional insights into the reaction specificity of catalase-related hydroperoxide lyase: A shift from lyase activity to allene oxide synthase by site-directed mutagenesis” (PLoS ONE, 2017).
Results are given in words; binding and its absence hold for the method and conditions named. Where a sequence is shown, tags or fusion partners need not be part of it.

Molecular target: Plexaura homomalla allene oxide synthase-lipoxygenase fusion protein (cAOS-LOX) (Plexaura homomalla) (UniProt O16025)
Assay: SEC; Superdex 200 Increase 10/300 GL, 50 mM Tris pH 8.0, 150 mM NaCl, 0.7 mL/min, read at 406 and 280 nm; 10-15 ug of a mutant or about 50 ug of wt cHPL; retention times compared with mass standards; both purified

B1: Plexaura homomalla allene oxide synthase-lipoxygenase fusion protein (cAOS-LOX) (protein, UniProt O16025 1-1066)
chain: MTWKNFGFEIFGEKYGQEELEKRIKDEHTPPPDSPVFGGLKLKLKKEKFKTLFTLGTTLKGFRRATHTVGTGGIGEITIVNDPKFPEHEFFTAGRTFPARLRHANLKYPDDAGADARSFSIKFADSDSDGPLDIVMNTGEANIFWNSPSLEDFVPVEEGDAAEEYVYKNPYYYYNLVEALRRAPDTFAHLYYYSQVTMPFKAKDGKVRYCRYRALPGDVDIKEEDESGRLTEEEQRKIWIFSRHENEKRPDDYLRKEYVERLQKGPVNYRLQIQIHEASPDDTATIFHAGILWDKETHPWFDLAKVSIKTPLSPDVLEKTAFNIANQPASLGLLEAKSPEDYNSIGELRVAVYTWVQHLRKLKIGSLVPAGQNAIYNVEVETGDREHAGTDATITIRITGAKGRTDYLKLDKWFHNDFEAGSKEQYTVQGFDVGDIQLIELHSDGGGYWSGDPDWFVNRVIIISSTQDRVYSFPCFRWVIKDMVLFPGEATLPFNEVPAIVSEQRQKELEQRKLTYQWDYVSDDMPGNIKAKTHDDLPRDVQFTDEKSRSYQESRKAALVNLGIGSLFTMFENWDSYDDYHILYRNWILGGTPNMADRWHEDRWFGYQFLNGANPVILTRCDALPSNFPVTNEHVNASLDRGKNLDEEIKDGHIYIVDFKVLVGAKSYGGPVLEDIGYKVPDHLKHDEADIRYCAAPLALFYVNKLGHLMPIAIQINQEPGPENPIWTPHEENEHDWMMAKFWLGVAESNFHQLNTHLLRTHLTTESFALSTWRNLASAHPVFKLLQPHIYGVLAIDTIGRKELIGSGGIVDQSLSLGGGGHVTFMEKCFKEVNLQDYHLPNALKKRGVDDPSKLPGFYYRDDGLALWEAIETFIGEIIAIFYKNDDDVKRDNEIQSWIYDVHKNGWRVNPGHQDHGVPASFESREQLKEVLTSLVFTFSCQHAAVNFSQKDHYGFTPNAPAVLRHPPPKKKGEATLQSILSTLPSKSQAAKAIATVYILTKFSEDERYLGNYSATAWEDKDALDAINRFQDKLEDISKKIKQRNENLEVPYIYLLPERIPNGTAI
- binding: no binding
